Laboratory results published in patent publication US20250109275A1, “AMINE FATTY ACID ADDUCTS AS TIRE COMPOUNDING ADDITIVES” (priority 2023, published 2025).

What was measured:
[1] = Payne Effect, ASTM D8059 strain sweep; conditions: for G′@0.100%: 0.100% strain; for G′@1.00%: 1.00% strain; for G′@100.000%: 100.000% strain; for Payne Effect (0.1% to 100%): strain sweep 0.1% to 100%; for Payne Effect (1.0% to 100%): strain sweep 1.0% to 100%
[2] = Dispersion, ASTM D7723 (Macro-Dispersion of Fillers in Compounds); conditions: additive 3.0 PHR
[3] = Abrasion resistance, ASTM D5963 (Rotary Drum Abrader), non-rotating; conditions: for Abrasion Resistance Index, %: fixed (non-rotating) method

| Molecule | G′@0.100% [1] | G′@1.00% [1] [kPa] | G′@100.000% [1] [kPa] | Payne Effect (0.1% to 100%) [1] [kPa] | Payne Effect (1.0% to 100%) [1] | Dispersion Percent (%) [2] [%] | Abrasion Resistance Index, % [3] [%] | % Difference from Control 1 ([1]; Payne Effect (0.1% to 100%)) [%] | % Difference from Control 1 ([1]; Payne Effect (1.0% to 100%)) [%] | abrasion resistance relative to the controls, in words [3] |
| --- | --- | --- | --- | --- | --- | --- | --- | --- | --- | --- |
| CCCCCCCC/C=C\CCCCCCCC1=NCCN1CCN [Inventive Ex. 2, diethylenetriamine (DETA) oleic acid imidazoline] | 420 1-Pa | 392 | 116 | 304 | 276 1-Pa | 93 | 153 |  |  |  |
| CCCCCCCC/C=C\CCCCCCCC(=O)NCCNCCNC(=O)CCCCCCC/C=C\CCCCCCCC [Inventive Ex. 3, diethylenetriamine (DETA) oleic acid bisamide] | 416 1-Pa | 403 | 118 | 298 | 285 1-Pa | 95 |  |  |  |  |
| tetraethylenepentamine (TEPA) oleic acid amidoamine [Inventive Ex. 5] |  |  |  | 325 | 316 1-Pa | 94 |  | −4.28 | 2.36 | slightly lower in abrasion resistance |
| CCCCCCCC/C=C\CCCCCCCC(=O)NCCCN(C)C [Inventive Ex. 6, dimethylaminopropylamine (DMAPA) oleic acid amidoamine] | 450 1-Pa | 419 | 119 | 331 | 300 1-Pa | 97 |  |  |  |  |
| CCCCCCCC/C=C\CCCCCCCC(=O)NCCNCCN [Inventive Ex. 1, diethylenetriamine (DETA) oleic acid amidoamine] | 393 1-Pa | 378 | 113 | 280 | 264 1-Pa | 92 | 144 |  |  |  |
